In the supplement of paper PMC10849652:
The list shows a part of the results.

By UniProt entry, the sequences of proteins in these tests, tags left out. Where a name states a change or a piece, a line headed by the entry shows the natural chain unless it says otherwise.
UniProt P31948, whole entry, looked up: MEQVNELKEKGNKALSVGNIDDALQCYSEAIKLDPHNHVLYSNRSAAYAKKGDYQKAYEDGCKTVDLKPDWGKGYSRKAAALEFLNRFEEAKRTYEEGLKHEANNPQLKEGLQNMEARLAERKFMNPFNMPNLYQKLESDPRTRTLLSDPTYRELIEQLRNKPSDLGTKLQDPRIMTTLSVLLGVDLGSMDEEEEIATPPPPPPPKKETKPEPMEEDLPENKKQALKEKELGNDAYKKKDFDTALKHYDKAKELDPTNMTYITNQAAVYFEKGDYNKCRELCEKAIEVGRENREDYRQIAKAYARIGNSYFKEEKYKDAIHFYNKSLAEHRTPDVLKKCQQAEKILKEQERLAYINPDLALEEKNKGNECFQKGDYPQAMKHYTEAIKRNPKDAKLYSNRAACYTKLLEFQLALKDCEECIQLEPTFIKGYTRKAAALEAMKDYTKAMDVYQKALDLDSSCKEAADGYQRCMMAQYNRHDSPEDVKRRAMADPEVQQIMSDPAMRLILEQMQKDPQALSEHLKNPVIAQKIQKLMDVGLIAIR
UniProt Q96BN2: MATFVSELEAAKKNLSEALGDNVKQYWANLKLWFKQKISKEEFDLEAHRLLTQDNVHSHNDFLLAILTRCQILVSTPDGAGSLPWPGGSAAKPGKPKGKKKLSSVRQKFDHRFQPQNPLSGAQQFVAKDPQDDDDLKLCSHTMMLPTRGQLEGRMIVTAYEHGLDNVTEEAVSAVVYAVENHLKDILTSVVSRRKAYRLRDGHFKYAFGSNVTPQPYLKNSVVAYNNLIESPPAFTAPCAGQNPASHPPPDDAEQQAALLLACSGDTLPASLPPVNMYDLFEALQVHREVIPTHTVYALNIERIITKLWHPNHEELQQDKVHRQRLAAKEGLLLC
UniProt O43752: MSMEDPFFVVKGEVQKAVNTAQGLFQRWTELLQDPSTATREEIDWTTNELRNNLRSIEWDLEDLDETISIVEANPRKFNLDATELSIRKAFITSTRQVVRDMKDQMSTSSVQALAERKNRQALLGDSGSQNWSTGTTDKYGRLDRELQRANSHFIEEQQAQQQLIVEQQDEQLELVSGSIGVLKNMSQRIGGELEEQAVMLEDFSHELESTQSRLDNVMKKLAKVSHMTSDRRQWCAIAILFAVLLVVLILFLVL
UniProt Q9NRP7: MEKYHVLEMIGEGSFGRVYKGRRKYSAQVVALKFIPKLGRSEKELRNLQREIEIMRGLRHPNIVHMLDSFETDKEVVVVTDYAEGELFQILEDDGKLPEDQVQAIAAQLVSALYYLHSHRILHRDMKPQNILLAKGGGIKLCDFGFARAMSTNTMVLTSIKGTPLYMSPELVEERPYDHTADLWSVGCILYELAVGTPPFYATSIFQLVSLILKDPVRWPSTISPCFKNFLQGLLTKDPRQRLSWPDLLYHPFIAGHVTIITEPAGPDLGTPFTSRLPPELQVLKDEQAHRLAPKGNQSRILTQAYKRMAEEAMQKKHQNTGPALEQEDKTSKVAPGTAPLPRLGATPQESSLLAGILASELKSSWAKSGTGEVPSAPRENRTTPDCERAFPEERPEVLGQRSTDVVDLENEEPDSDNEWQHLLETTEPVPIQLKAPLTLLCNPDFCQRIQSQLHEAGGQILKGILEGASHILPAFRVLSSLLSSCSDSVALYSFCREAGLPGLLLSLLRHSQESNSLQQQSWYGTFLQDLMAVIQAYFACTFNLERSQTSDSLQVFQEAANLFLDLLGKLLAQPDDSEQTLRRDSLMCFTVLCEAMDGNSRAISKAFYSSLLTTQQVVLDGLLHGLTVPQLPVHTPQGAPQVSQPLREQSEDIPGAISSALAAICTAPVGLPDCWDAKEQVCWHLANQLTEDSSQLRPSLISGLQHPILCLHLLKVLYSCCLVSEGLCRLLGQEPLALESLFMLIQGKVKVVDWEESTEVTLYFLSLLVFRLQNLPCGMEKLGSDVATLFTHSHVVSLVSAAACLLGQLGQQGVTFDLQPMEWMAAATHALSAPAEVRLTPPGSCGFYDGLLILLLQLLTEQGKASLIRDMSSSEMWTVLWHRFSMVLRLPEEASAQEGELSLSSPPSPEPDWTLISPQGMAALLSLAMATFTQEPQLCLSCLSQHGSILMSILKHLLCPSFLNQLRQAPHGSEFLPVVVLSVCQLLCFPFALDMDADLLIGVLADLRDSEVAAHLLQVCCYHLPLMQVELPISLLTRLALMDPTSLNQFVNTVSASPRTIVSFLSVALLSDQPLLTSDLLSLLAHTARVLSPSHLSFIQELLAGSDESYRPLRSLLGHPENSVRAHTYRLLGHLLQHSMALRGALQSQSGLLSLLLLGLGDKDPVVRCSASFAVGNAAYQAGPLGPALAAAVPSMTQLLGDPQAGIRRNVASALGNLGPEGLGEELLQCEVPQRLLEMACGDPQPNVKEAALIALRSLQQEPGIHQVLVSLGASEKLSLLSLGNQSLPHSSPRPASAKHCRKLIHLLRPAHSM
UniProt Q92797: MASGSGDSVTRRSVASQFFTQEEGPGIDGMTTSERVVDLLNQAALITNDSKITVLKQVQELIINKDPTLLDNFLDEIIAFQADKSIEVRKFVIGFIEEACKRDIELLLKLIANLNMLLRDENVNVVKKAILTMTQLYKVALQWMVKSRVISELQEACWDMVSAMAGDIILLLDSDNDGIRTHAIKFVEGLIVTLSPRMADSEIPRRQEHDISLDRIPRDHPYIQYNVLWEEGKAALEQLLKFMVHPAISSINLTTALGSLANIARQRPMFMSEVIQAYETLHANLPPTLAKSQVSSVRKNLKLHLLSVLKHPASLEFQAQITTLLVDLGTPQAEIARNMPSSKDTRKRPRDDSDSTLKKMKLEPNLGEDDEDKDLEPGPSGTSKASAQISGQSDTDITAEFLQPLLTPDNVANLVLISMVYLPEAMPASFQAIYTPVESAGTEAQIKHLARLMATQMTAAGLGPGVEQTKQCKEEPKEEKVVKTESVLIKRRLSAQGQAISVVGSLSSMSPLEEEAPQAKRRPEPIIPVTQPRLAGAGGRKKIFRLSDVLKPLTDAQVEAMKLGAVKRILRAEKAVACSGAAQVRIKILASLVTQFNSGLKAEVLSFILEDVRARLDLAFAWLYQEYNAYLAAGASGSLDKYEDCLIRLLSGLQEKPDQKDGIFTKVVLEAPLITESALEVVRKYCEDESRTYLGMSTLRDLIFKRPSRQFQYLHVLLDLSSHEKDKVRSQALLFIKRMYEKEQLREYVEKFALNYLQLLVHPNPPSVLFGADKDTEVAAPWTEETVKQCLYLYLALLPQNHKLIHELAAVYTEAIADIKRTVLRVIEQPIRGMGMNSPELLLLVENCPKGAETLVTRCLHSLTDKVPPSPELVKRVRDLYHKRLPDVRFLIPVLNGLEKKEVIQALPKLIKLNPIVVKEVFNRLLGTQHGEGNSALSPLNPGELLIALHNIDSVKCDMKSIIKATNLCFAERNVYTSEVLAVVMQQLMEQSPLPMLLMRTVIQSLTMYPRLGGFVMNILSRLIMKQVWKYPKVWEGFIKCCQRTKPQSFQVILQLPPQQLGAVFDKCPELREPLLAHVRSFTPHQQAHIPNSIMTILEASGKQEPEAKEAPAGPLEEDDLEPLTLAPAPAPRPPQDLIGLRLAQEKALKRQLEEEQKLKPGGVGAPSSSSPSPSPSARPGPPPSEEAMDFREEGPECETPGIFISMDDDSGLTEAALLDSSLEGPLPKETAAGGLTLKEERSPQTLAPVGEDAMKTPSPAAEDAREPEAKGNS
UniProt Q12962, whole entry, looked up: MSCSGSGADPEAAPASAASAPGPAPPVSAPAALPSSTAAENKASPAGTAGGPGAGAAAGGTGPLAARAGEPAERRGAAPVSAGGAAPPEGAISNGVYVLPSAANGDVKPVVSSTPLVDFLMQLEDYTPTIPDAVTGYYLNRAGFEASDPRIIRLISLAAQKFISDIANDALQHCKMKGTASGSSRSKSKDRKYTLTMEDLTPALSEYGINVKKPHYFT
UniProt Q93045: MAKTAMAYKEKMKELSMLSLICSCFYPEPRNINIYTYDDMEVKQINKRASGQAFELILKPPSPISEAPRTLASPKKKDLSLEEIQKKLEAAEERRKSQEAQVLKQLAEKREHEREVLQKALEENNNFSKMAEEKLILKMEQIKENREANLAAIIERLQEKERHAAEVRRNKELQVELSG
UniProt Q8N1F8: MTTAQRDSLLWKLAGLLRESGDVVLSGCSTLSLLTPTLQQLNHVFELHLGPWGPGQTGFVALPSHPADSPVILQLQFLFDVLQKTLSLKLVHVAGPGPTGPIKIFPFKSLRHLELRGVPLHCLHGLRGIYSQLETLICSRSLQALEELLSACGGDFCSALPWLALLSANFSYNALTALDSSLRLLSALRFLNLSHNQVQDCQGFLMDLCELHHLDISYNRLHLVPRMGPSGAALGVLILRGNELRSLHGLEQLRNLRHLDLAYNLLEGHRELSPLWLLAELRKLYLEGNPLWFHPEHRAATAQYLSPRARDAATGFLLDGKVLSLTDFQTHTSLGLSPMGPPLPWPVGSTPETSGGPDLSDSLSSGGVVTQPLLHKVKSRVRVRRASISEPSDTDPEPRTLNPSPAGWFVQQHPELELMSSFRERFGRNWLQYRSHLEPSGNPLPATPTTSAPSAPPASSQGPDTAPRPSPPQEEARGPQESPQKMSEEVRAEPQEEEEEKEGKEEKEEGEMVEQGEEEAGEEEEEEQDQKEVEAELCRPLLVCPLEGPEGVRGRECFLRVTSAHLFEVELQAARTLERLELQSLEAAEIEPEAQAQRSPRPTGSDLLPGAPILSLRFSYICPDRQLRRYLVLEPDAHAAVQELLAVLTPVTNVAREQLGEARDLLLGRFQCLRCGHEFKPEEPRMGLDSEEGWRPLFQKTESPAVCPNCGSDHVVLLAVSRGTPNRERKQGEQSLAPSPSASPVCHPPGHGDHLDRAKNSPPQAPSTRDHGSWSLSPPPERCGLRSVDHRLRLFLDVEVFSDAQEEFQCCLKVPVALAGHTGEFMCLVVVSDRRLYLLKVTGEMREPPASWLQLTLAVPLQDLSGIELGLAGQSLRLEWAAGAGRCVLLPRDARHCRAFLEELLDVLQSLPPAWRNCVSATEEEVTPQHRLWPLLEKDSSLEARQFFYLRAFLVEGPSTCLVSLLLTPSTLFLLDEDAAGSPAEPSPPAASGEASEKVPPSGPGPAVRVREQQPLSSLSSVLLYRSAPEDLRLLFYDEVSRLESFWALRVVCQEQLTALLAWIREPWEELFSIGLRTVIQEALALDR
UniProt P57105: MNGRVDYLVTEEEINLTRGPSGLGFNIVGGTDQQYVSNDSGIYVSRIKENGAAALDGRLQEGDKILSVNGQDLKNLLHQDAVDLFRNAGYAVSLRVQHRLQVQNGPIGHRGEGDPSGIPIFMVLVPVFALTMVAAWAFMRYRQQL
UniProt O43815: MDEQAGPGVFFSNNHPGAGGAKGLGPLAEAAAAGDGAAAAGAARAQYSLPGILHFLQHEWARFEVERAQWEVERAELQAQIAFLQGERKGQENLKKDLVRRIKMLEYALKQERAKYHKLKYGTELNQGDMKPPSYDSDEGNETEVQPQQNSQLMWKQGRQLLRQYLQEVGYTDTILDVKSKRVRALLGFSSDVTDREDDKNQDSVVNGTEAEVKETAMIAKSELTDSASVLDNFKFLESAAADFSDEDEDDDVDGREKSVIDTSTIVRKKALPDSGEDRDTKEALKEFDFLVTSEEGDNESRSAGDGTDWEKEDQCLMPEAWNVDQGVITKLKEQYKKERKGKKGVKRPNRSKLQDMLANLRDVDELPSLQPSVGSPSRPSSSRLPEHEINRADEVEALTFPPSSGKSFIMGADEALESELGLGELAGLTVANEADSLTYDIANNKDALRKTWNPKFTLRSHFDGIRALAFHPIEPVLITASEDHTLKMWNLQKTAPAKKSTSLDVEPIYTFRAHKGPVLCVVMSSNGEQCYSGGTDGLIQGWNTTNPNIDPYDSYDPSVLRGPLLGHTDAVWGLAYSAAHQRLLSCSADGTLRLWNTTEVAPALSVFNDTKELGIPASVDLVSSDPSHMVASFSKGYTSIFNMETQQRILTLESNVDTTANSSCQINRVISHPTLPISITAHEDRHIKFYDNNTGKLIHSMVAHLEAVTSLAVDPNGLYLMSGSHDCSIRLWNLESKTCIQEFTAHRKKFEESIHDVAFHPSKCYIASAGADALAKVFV
UniProt O00506, whole entry, looked up: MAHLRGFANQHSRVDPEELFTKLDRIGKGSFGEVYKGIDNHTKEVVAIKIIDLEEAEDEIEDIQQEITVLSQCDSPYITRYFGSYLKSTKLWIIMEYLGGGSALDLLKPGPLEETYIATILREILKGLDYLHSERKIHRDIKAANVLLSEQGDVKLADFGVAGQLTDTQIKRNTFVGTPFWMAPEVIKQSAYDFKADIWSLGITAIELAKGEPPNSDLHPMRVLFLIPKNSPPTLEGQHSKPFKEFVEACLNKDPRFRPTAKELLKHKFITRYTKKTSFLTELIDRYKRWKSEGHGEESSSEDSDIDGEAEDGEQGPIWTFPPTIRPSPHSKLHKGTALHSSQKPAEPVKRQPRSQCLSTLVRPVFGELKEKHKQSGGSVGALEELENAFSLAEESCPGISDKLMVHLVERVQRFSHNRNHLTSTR

Assays:
Test in all cases: log2 fold change, soluble protein after heating vs DMSO (PISA); higher = thermal stabilisation; K562 lysate, 10 uM; active = over 0.2 and 3.5 SD of the protein, either way, in both replicates (recomputed)
erlotinib = compound: C#Cc1cccc(Nc2ncnc3cc(OCCOC)c(OCCOC)cc23)c1 [erlotinib]
Method in brief: (§1)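 Thermal stability, expressed as log-two fold change relative to solvent controls, is given from duplicates. Crude K562 extract in PBS pH 7.4 with 1 mM MgCl2, at 1 mg/mL protein, was treated with 10 μM compound for 30 min and heated in aliquots for 3 min across 48°C-58°C. After pooling, adjustment to 0.5% NP-40 at 4°C and centrifugation at 21,000xg for 90 min, supernatant protein was measured by TMTpro 16plex LC-MS/MS with channel sums equalised.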

[1] = compound: C/C(=N\NC(=O)C1=CC(=CC=C1)S(=O)(=O)N2CCOCC2)/C3=C(C=CC(=C3)Cl)O
Method in brief: as §1

[2] = compound: C1=CC(=CC=C1C2=NC3=C(N2)C=C(C=C3)C(=O)N)OC4=CC=C(C=C4)Cl
Method in brief: as §1

[3] = compound: C1=CC2=C(C=CC(=C2)/C=C\3/C(=O)NC(=NCC4=CC=CS4)S3)N=C1
Method in brief: as §1

[4] = compound: C1=CC2=NC=CN=C2C=C1/C=C/3\C(=O)NC(=O)S3
Method in brief: as §1

[5] = compound: C1=CC=C(C=C1)C2=NC(=C(N2)C3=CC=NC=C3)C4=CC(=C(C=C4)Cl)O
Method in brief: as §1

[6] = compound: C1=CC=C2C(=C1)C3=NNC4=CC=CC(=C43)C2=O
Method in brief: as §1

[7] = compound: C1CCN(C1)C(=O)NC2=CC=CC(=C2)NC3=NC=C(C(=N3)NCCC4=CN=CN4)Br
Method in brief: as §1

[8] = compound: C1CN(CCC1(CC2=CC=C(C=C2)Cl)N)C3=NC=NC4=C3C=CN4
Method in brief: as §1

IRAK-1-4 Inhibitor I = compound: C1COCCN1CCN2C3=CC=CC=C3N=C2NC(=O)C4=CC(=CC=C4)[N+](=O)[O-] [IRAK-1-4 Inhibitor I]
Method in brief: as §1

ibrutinib = compound: C=CC(=O)N1CCC[C@@H](n2nc(-c3ccc(Oc4ccccc4)cc3)c3c(N)ncnc32)C1 [ibrutinib]
Method in brief: as §1

[9] = compound: CC(=O)c1cnc2ccc(-c3cc(Cl)c(O)c(Cl)c3)nc2c1N[C@H]1CC[C@H](CN(C)C)CC1
Method in brief: as §1

ralimetinib = compound: CC(C)(C)Cn1c(N)nc2ccc(-c3[nH]c(C(C)(C)C)nc3-c3ccc(F)cc3)nc21 [ralimetinib]
Method in brief: as §1

[10] = compound: CC(C)(O)CC(=O)NCCn1ccc2ncnc(Nc3ccc(Oc4cccc(C(F)(F)F)c4)c(Cl)c3)c21
Method in brief: as §1

[11] = compound: CC(C)C1=C2N=C(C=C(N2N=C1)NCC3=CC=CC=C3)NCCCCCCN
Method in brief: as §1

[12] = compound: CC1=C(C(CC(=O)N1)C2=CC=C(C=C2)C(F)(F)F)C(=O)NC3=C(C=C4C(=C3)C=NN4)F
Method in brief: as §1

[13] = compound: CC1=C(C2=C(C=C1)C(=O)C3=CC=CC=C3N2CCCN)C
Method in brief: as §1

[14] = compound: CC1=C(C=C(C=C1)NC(=O)C2=CC(=CC=C2)C(C)(C)C#N)NC3=CC4=C(C=C3)N=CN(C4=O)C
Method in brief: as §1

[15] = compound: CC1=C(C=C(C=C1)NC(=O)C2=CC(=CC=C2)N(C)C)NC(=O)C3=CC=C(C=C3)O
Method in brief: as §1

[16] = compound: CC1=CC=C(C=C1)SC2=C3C=C(SC3=CN=C2)C(=O)N
Method in brief: as §1

Measured: log2 fold change

STIP1 isoform 2 (UniProt P31948)
inactive: erlotinib -0.014 | [1] 0.039 | [2] -0.004 | [3] -0.004 | [4] -0.011 | [5] 0.005 | [6] 0.035 | [7] 0.045 | [8] -0.006 | IRAK-1-4 Inhibitor I -0.022 | ibrutinib -0.003 | [9] 0.018 | ralimetinib -0.039 | [10] 0.005 | [11] 0.018 | [12] -0.01 | [13] 0.017 | [14] -0.02 | [15] -0.038 | [16] 0.015

TADA3 (UniProt O75528)
inactive: erlotinib 0.02 | [1] -0.046 | [2] 0.032 | [3] -0.073 | [4] -0.04 | [5] 0.048 | [6] 0.009 | [7] -0.058 | [8] 0.053 | IRAK-1-4 Inhibitor I 0.018 | ibrutinib 0.032 | [9] 0 | ralimetinib -0.013 | [10] -0.022 | [11] 0.018 | [12] -0.003 | [13] -0.005 | [14] 0.054 | [15] 0.024 | [16] -0.011

TACC1 (UniProt O75410)
inactive: erlotinib -0.001 | [1] -0.029 | [2] -0.035 | [3] 0.011 | [4] -0.016 | [5] -0.051 | [6] 0.002 | [7] -0.01 | [8] -0.037 | IRAK-1-4 Inhibitor I 0.029 | ibrutinib 0.073 | [9] -0.022 | ralimetinib -0.007 | [10] -0.069 | [11] -0.01 | [12] 0.126 | [13] -0.038 | [14] 0.012 | [15] -0.009 | [16] -0.02

TADA1 (UniProt Q96BN2)
inactive: erlotinib 0.032 | [1] -0.102 | [2] 0.041 | [3] -0.186 | [4] -0.075 | [5] 0.033 | [6] -0.155 | [7] 0.114 | [8] -0.02 | IRAK-1-4 Inhibitor I -0.001 | ibrutinib -0.006 | [9] -0.013 | ralimetinib 0.055 | [10] -0.074 | [11] 0.044 | [12] 0.181 | [13] -0.023 | [14] 0.117 | [15] -0.053 | [16] -0.023

STX6 (UniProt O43752)
inactive: erlotinib 0.043 | [1] -0.054 | [2] 0.005 | [3] -0.032 | [4] 0.005 | [5] -0.017 | [6] -0.011 | [7] 0.028 | [8] 0.027 | IRAK-1-4 Inhibitor I 0.019 | ibrutinib 0.015 | [9] -0.031 | ralimetinib -0.01 | [10] -0.049 | [11] -0.038 | [12] -0.04 | [13] 0.011 | [14] 0.03 | [15] -0.012 | [16] 0.017

STK36 (UniProt Q9NRP7)
inactive: erlotinib 0.114 | [1] -0.06 | [2] 0.251 | [3] -0.199 | [4] -0.169 | [5] -0.075 | [6] -0.241 | [7] -0.049 | [8] 0.185 | IRAK-1-4 Inhibitor I 0.205 | ibrutinib 0.019 | [9] -0.182 | ralimetinib -0.087 | [10] -0.416 | [11] 0.071 | [12] -0.058 | [13] -0.176 | [14] 0.408 | [15] -0.004 | [16] -0.097

SYMPK (UniProt Q92797)
inactive: erlotinib 0.016 | [1] 0.012 | [2] -0.008 | [3] 0.017 | [4] -0.034 | [5] 0.002 | [6] -0.031 | [7] -0.014 | [8] 0.022 | IRAK-1-4 Inhibitor I 0.007 | ibrutinib 0.009 | [9] -0.02 | ralimetinib 0.004 | [10] -0.053 | [11] -0.014 | [12] 0.007 | [13] -0.015 | [14] -0.01 | [15] 0.033 | [16] 0.006

SURF6 (UniProt O75683)
inactive: erlotinib -0.035 | [1] -0.02 | [2] -0.046 | [3] 0.016 | [4] -0.015 | [5] 0.018 | [6] 0.055 | [7] -0.008 | [8] -0.006 | IRAK-1-4 Inhibitor I -0.02 | ibrutinib -0.008 | [9] -0.023 | ralimetinib -0.001 | [10] 0.023 | [11] -0.011 | [12] 0.001 | [13] -0.048 | [14] -0.024 | [15] 0.033 | [16] -0.012

TAF10 (UniProt Q12962)
inactive: erlotinib -0.025 | [1] -0.08 | [2] 0.137 | [3] -0.036 | [4] 0.069 | [5] 0.042 | [6] 0.102 | [7] 0.02 | [8] -0.004 | IRAK-1-4 Inhibitor I -0.013 | ibrutinib 0.161 | [9] -0.043 | ralimetinib 0.05 | [10] 0.069 | [11] -0.018 | [12] 0.03 | [13] 0.019 | [14] 0.042 | [15] -0.089 | [16] -0.041

STMN2 isoform 2 (UniProt Q93045)
inactive: erlotinib -0.038 | [1] 0.041 | [2] -0.038 | [3] -0.047 | [4] -0.006 | [5] 0.023 | [6] 0.015 | [7] 0.059 | [8] 0.009 | IRAK-1-4 Inhibitor I -0.009 | ibrutinib -0.055 | [9] 0.024 | ralimetinib -0.043 | [10] 0.029 | [11] 0.058 | [12] 0.009 | [13] 0.039 | [14] 0 | [15] -0.01 | [16] -0.027

STK11IP (UniProt Q8N1F8)
inactive: erlotinib 0.015 | [1] 0.008 | [2] -0.002 | [3] -0.071 | [4] 0.007 | [5] -0.007 | [6] 0.025 | [7] -0.029 | [8] 0.033 | IRAK-1-4 Inhibitor I 0.053 | ibrutinib -0.016 | [9] -0.024 | ralimetinib 0.044 | [10] -0.055 | [11] 0 | [12] 0.046 | [13] 0.024 | [14] -0.009 | [15] 0 | [16] 0.015

SYNJ2BP (UniProt P57105)
inactive: erlotinib -0.017 | [1] 0.011 | [2] -0.008 | [3] 0.062 | [4] -0.03 | [5] -0.013 | [6] -0.158 | [7] -0.088 | [8] -0.044 | IRAK-1-4 Inhibitor I -0.065 | ibrutinib 0.185 | [9] 0.026 | ralimetinib 0.006 | [10] 0 | [11] -0.009 | [12] 0.051 | [13] -0.03 | [14] -0.095 | [15] 0.002 | [16] -0.042

STX12 (UniProt Q86Y82)
inactive: erlotinib -0.039 | [1] -0.011 | [2] 0.038 | [3] -0.043 | [4] -0.028 | [5] -0.009 | [6] -0.043 | [7] 0.029 | [8] 0.039 | IRAK-1-4 Inhibitor I 0.006 | ibrutinib -0.018 | [9] -0.035 | ralimetinib 0.001 | [10] -0.005 | [11] -0.017 | [12] -0.018 | [13] 0.019 | [14] 0.003 | [15] -0.008 | [16] -0.03

Copied from the listing (two entries):
TADA1 (UniProt Q96BN2)
inactive: erlotinib 0.032 | [1] -0.102 | [2] 0.041 | [3] -0.186 | [4] -0.075 | [5] 0.033 | [6] -0.155 | [7] 0.114 | [8] -0.02 | IRAK-1-4 Inhibitor I -0.001 | ibrutinib -0.006 | [9] -0.013 | ralimetinib 0.055 | [10] -0.074 | [11] 0.044 | [12] 0.181 | [13] -0.023 | [14] 0.117 | [15] -0.053 | [16] -0.023

STX6 (UniProt O43752)
inactive: erlotinib 0.043 | [1] -0.054 | [2] 0.005 | [3] -0.032 | [4] 0.005 | [5] -0.017 | [6] -0.011 | [7] 0.028 | [8] 0.027 | IRAK-1-4 Inhibitor I 0.019 | ibrutinib 0.015 | [9] -0.031 | ralimetinib -0.01 | [10] -0.049 | [11] -0.038 | [12] -0.04 | [13] 0.011 | [14] 0.03 | [15] -0.012 | [16] 0.017

Carrying on:

STRN (UniProt O43815)
inactive: erlotinib 0.018 | [1] -0.02 | [2] 0.014 | [3] 0.019 | [4] 0.007 | [5] -0.001 | [6] -0.023 | [7] -0.032 | [8] -0.006 | IRAK-1-4 Inhibitor I -0.015 | ibrutinib 0.041 | [9] -0.026 | ralimetinib 0.011 | [10] 0 | [11] -0.007 | [12] 0.004 | [13] 0.001 | [14] -0.016 | [15] -0.015 | [16] 0

STK25 (UniProt O00506)
active: [6] 0.317
inactive: erlotinib 0.037 | [1] -0.04 | [2] -0.038 | [3] 0.021 | [4] 0.012 | [5] 0.031 | [7] 0.052 | [8] -0.022 | IRAK-1-4 Inhibitor I -0.001 | ibrutinib -0.021 | [9] 0.165 | ralimetinib -0.071 | [10] 0.007 | [11] -0.006 | [12] -0.02 | [13] -0.038 | [14] -0.042 | [15] 0.035 | [16] -0.025

TACO1 (UniProt Q9BSH4)
inactive: erlotinib 0.019 | [1] 0.363 | [2] -0.008 | [3] -0.031 | [4] 0.007 | [5] -0.003 | [6] -0.013 | [7] -0.057 | [8] 0.026 | IRAK-1-4 Inhibitor I -0.009 | ibrutinib -0.02 | [9] 0.022 | ralimetinib 0.011 | [10] -0.007 | [11] 0.02 | [12] -0.028 | [13] -0.041 | [14] -0.045 | [15] 0.016 | [16] 0.038
